No constants are given. Whether binding was seen depends on the method and setting. In cells and extracts the contact can be indirect. These calls come from enrichment with a bait or labelling near it, and not all partners need be listed.
Target: LIN-53 (muscle-specific, FLAG-tagged; myo-3p::lin-53::2xFLAG) (C. elegans) (UniProt P90916)
Experiment: affinity purification with mass spectrometry

By UniProt entry, the sequences of proteins in these tests, tags left out.
UniProt P90916: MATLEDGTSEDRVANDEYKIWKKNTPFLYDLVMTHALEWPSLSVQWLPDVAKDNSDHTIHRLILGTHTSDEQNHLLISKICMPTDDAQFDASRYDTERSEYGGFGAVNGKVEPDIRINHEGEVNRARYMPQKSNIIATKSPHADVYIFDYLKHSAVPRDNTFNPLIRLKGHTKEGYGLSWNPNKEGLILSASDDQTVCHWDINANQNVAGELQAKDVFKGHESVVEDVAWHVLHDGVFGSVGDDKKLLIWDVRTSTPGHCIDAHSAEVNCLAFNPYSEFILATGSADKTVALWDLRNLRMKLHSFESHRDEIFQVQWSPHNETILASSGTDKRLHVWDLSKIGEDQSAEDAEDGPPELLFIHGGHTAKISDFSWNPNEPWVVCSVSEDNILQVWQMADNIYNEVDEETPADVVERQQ
UniProt O17695: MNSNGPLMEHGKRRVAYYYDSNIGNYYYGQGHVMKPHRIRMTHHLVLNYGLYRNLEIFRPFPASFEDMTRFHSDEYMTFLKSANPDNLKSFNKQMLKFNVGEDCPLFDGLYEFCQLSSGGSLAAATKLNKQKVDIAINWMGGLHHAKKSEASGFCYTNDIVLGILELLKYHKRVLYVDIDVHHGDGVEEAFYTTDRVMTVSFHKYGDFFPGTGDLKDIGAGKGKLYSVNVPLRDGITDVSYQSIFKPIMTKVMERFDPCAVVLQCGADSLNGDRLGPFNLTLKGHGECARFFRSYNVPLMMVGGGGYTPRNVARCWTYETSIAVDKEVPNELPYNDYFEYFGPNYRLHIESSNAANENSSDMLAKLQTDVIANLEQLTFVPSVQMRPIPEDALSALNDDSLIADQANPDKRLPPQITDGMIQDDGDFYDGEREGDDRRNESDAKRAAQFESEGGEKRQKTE
UniProt G5EBZ4: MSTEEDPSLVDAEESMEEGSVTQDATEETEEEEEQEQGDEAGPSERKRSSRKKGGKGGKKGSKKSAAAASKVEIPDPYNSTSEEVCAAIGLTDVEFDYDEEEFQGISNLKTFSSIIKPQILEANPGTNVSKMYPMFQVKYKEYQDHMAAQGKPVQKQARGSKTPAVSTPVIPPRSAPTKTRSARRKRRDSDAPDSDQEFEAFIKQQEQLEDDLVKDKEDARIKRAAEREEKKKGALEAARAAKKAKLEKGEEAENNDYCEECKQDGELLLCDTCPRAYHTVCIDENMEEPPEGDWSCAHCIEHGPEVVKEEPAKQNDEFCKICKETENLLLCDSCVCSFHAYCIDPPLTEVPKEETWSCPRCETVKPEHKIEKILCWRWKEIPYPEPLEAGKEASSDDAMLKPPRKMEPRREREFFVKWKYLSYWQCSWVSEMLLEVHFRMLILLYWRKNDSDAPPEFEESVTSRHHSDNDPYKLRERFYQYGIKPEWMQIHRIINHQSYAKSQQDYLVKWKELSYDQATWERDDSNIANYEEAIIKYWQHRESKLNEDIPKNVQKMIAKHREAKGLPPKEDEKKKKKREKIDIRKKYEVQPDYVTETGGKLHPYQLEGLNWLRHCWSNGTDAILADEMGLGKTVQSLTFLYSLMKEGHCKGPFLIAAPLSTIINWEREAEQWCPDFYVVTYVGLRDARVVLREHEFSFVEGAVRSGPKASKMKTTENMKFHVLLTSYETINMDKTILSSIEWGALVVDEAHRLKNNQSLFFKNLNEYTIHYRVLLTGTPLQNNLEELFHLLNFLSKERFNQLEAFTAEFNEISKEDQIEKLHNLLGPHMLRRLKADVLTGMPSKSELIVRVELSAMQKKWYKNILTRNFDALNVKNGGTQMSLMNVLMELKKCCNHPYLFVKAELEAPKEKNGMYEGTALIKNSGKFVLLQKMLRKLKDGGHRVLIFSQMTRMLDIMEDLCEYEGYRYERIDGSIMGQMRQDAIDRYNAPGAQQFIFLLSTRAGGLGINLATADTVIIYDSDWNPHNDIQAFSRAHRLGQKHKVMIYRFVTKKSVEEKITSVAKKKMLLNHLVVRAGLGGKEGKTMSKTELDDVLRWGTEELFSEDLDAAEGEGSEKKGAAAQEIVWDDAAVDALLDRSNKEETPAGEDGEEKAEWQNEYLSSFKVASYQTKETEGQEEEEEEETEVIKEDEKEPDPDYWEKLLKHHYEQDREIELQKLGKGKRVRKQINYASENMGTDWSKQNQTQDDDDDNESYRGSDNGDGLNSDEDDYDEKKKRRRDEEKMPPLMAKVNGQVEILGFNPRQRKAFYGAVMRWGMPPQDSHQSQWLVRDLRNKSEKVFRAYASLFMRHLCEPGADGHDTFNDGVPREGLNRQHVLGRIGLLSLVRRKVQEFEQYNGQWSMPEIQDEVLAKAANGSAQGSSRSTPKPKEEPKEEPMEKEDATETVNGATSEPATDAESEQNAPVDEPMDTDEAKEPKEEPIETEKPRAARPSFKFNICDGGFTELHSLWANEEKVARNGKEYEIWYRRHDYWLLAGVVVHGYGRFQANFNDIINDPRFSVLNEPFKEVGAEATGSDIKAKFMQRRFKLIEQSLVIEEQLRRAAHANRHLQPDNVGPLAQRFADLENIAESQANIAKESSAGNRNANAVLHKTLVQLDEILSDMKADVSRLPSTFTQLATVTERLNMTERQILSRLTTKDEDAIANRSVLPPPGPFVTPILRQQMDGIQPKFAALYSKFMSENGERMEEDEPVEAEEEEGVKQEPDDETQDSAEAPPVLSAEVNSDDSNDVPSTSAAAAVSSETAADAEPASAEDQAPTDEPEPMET

binding	Substance
binds	HDA-1 (from UniProt O17695 1-461)
binds	LET-418 (from UniProt G5EBZ4 1-1829)

Reference: paper doi:10.1101/539015
